At least one structure is not confirmed: it was looked up by name or label, or the drawing left a doubt.
Assays:
Format in all cases: in vivo, mouse
[1] = test system: Balb/c female mice, allergic bronchial asthma induced by ovalbumin (OVA); assay: IgE and ovalbumin-specific IgE concentration in serum (ELISA), OVA-induced allergic bronchial asthma model; conditions: dexamethasone 2.5 mg/kg oral; vs OVA group
[2] = test system: Balb/c female mice, allergic bronchial asthma induced by ovalbumin (OVA); assay: Immune cell infiltration in lung by histopathological analysis (H&E and PAS staining), OVA-induced allergic bronchial asthma model; conditions: dexamethasone 2.5 mg/kg oral; vs OVA group
[3] = test system: Balb/c female mice, allergic bronchial asthma induced by ovalbumin (OVA); assay: Number of inflammatory cells in bronchoalveolar lavage fluid (Diff-Quick differential count), OVA-induced allergic bronchial asthma model; conditions: dexamethasone 2.5 mg/kg oral, days 15 through 27; vs OVA group
[4] = test system: Balb/c female mice, allergic bronchial asthma induced by ovalbumin (OVA); assay: Inflammatory cells in bronchoalveolar lavage fluid by flow cytometry, OVA-induced allergic bronchial asthma model; conditions: dexamethasone 2.5 mg/kg oral; vs OVA group

C[C@@H]1C[C@H]2[C@@H]3CCC4=CC(=O)C=C[C@]4(C)[C@@]3(F)[C@@H](O)C[C@]2(C)[C@@]1(O)C(=O)CO [dexamethasone, Dexamethasone]
concentration of ovalbumin-specific IgE in the serum [1]: significantly decreased | infiltration of eosinophils (PAS staining of lung tissue, goblet cell hyperplasia assessment) [2]: significantly inhibited | infiltration of eosinophils in lung (H&E staining) [2]: significantly inhibited | number of eosinophils in bronchoalveolar lavage fluid [3]: significantly decreased | number of total inflammatory cells in bronchoalveolar lavage fluid [3]: significantly decreased | cell count of alveolar macrophages in bronchoalveolar lavage fluid (flow cytometry, absolute) [4]: significantly decreased | cell count of interstitial macrophages in bronchoalveolar lavage fluid (flow cytometry, absolute) [4]: significantly decreased | cell count of neutrophils in bronchoalveolar lavage fluid (flow cytometry, absolute) [4]: significantly decreased | percentage of interstitial macrophages in bronchoalveolar lavage fluid (flow cytometry) [4]: significantly decreased | percentage of neutrophils in bronchoalveolar lavage fluid (flow cytometry) [4]: significantly decreased

Reference: US20240216458A1, “Composition for the prevention, improvement or treatment of allergic diseases comprising an extract of Cassia mimosoides L. as an active ingredient” (KOREA INSTITUTE OF SCIENCE AND TECHNOLOGY, priority 2022, published 2024)
